Literature values, collected in PMC11170107, “Development of a new hazard scoring system in primary neuronal cell cultures for drug-induced acute neuronal toxicity identification in early drug discovery” (Frontiers in Pharmacology, 2024).

What was measured:
[1] = Supplementary Table S1; cited from earlier work
[2] = seizure ADR frequency in SIDER; ref Campillos et al., 2008; Kuhn et al., 2010; cited from earlier work

For `CN1C(=O)CN=C(c2ccccc2)c2cc(Cl)ccc21` [Diazepam], the “Free Cmax highest” value [1] is given as 0.059 µM and the “SIDER ADR on-/off-label” value [2] is given as “no frequency information”.
